Taken from: PubChem BioAssay AID686938 (Drosophila RNAi Screening Center, 2013)
Purpose: 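Looking for CRAC channel components and the factors controlling them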 (primary screen). Cell system: Drosophila S2R+ cells. Reagent: long dsRNA against Drosophila genes, about 0.25 µg dsRNA per well, roughly 10,000 cells. Timing: 5 days of knock-down before the calcium assay. Challenge: thapsigargin (SERCA pump blocker) to empty calcium stores; entry signal taken 4 min after adding it. Detection: 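Per-well fluo-4 fluorescence in two replicates, unnormalised, measured in resting cells and 4 min after store depletion by the SERCA blocker thapsigargin; ratio of the two present in few wells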. Scale: calcium entry signal: higher = stronger calcium signal after store depletion; resting calcium signal: higher = higher resting calcium signal. Rule for the call: 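Hit if the duplicate-averaged plate z-score for entry over resting signal is under −3; wells with weak total dye signal (Fmax z < −2) or more than 5 off-targets removed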. Calls: active = strongly reduced calcium entry; inactive = no strong reduction.
The deposit covers about 23,000 reagents; this is an unselected part of those that have a named target and a result. In the full data, 75 (0.33%) are marked active. 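Raw plate signals without normalisation; calls rest on plate z-scores that were not deposited; ratio present for only 364 wells.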 The numbers tell different reagents against one gene apart. A plus sign joins genes that one reagent is predicted to hit. Not given: the dose of the treatment.

The first 2 records, ahead of the listing:
predicted target | reagent | calcium entry signal, replicate 1 (fluorescence units) | calcium entry signal, replicate 2 (fluorescence units) | resting calcium signal, replicate 1 (fluorescence units) | resting calcium signal, replicate 2 (fluorescence units) | activity call
Iml1 (Increased minichromosome loss 1) | 1 | 3.29e7 | 3.36e7 | 1.65e7 | 1.92e7 | inactive
Rhp (Rhophilin) | 1 | 3.65e7 | 3.18e7 | 1.99e7 | 1.41e7 | inactive

The listing, from the first entry:
predicted target | reagent | calcium entry signal, replicate 1 (fluorescence units) | calcium entry signal, replicate 2 (fluorescence units) | resting calcium signal, replicate 1 (fluorescence units) | resting calcium signal, replicate 2 (fluorescence units) | activity call
Iml1 (Increased minichromosome loss 1) | 1 | 3.29e7 | 3.36e7 | 1.65e7 | 1.92e7 | inactive
Rhp (Rhophilin) | 1 | 3.65e7 | 3.18e7 | 1.99e7 | 1.41e7 | inactive
CG5104 | 1 | 2.70e7 | 4.20e7 | 1.30e7 | 1.79e7 | inactive
Rab9Db + Rab9D + Rab9Fa + 1 more | 1 | 4.08e7 | 3.73e7 | 2.03e7 | 1.76e7 | inactive
Vps60 (Vacuolar protein sorting 60) | 1 | 4.62e7 | 6.72e7 | 2.22e7 | 2.61e7 | inactive
Hsp67Ba (Heat shock gene 67Ba) | 1 | 2.22e7 | 3.15e7 | 1.24e7 | 1.36e7 | inactive
Sou (Souji) | 1 | 4.91e7 | 5.27e7 | 2.15e7 | 2.16e7 | inactive
Kpc2 (Kip1 ubiquitination-promoting complex subunit 2) | 1 | 5.97e7 | 6.03e7 | 2.62e7 | 2.84e7 | inactive
Cpr5C (Cuticular protein 5C) | 1 | 3.86e7 | 5.61e7 | 1.90e7 | 3.00e7 | inactive
GCS1 (Glucosidase 1) | 1 | 2.70e7 | 3.00e7 | 1.27e7 | 1.39e7 | inactive
Femcoat | 1 | 3.04e7 | 4.63e7 | 1.50e7 | 2.15e7 | inactive
CG12520 | 1 | 2.58e7 | 3.77e7 | 1.32e7 | 1.56e7 | inactive
CG5890 | 1 | 4.80e7 | 7.18e7 | 2.43e7 | 3.13e7 | inactive
GLaz (Glial Lazarillo) | 1 | 1.69e7 | 2.06e7 | 1.03e7 | 1.14e7 | inactive
ksh (kish) | 1 | 3.57e7 | 4.56e7 | 1.90e7 | 1.91e7 | inactive
CG5377 | 1 | 2.98e7 | 3.35e7 | 6.59e7 | 1.56e7 | inactive
Hip1 (Huntingtin interacting protein 1) | 1 | 6.02e7 | 4.88e7 | 3.89e7 | 2.37e7 | inactive
l(3)neo43 (lethal (3) neo43) | 1 | 3.47e7 | 5.98e7 | 1.79e7 | 6.05e7 | inactive
CG14262 | 1 | 3.68e7 | 7.14e7 | 1.83e7 | 2.67e7 | inactive
Hmt-1 (Heavy metal tolerance factor 1) | 1 | 2.43e7 | 2.30e7 | 1.16e7 | 1.08e7 | inactive
Trim9 (Tripartite motif containing 9) | 1 | 3.74e7 | 4.48e7 | 1.77e7 | 2.00e7 | inactive
CG14043 | 1 | 4.03e7 | 3.75e7 | 1.82e7 | 1.61e7 | inactive
slgA (sluggish A) | 1 | 3.64e7 | 4.50e7 | 1.66e7 | 2.12e7 | inactive
CG14194 | 1 | 5.47e7 | 4.60e7 | 2.77e7 | 2.12e7 | inactive
pdm2 (POU domain protein 2) | 1 | 4.53e7 | 3.01e7 | 1.96e7 | 1.53e7 | inactive
pdm2 (POU domain protein 2) | 2 | 5.27e7 | 3.24e7 | 2.26e7 | 1.63e7 | inactive
pdm2 (POU domain protein 2) | 3 | 4.97e7 | 3.64e7 | 2.22e7 | 1.84e7 | inactive
CG17140 + CG17139 | 1 | 2.40e7 | 3.60e7 | 1.09e7 | 1.45e7 | inactive
CG17140 + CG17139 | 2 | 2.56e7 | 3.81e7 | 1.26e7 | 1.58e7 | inactive
LysRS (Lysyl-tRNA synthetase) | 1 | 2.64e7 | 3.05e7 | 1.30e7 | 1.44e7 | inactive
TTLL3A (Tubulin tyrosine ligase-like 3A) | 1 | 2.63e7 | 2.64e7 | 1.28e7 | 1.24e7 | inactive
Alp13 (Alkaline phosphatase 13) | 1 | 2.95e7 | 2.33e7 | 1.63e7 | 1.27e7 | inactive
CG11666 | 1 | 3.62e7 | 4.11e7 | 1.64e7 | 2.27e7 | inactive
CG1622 | 1 | 4.23e7 | 4.68e7 | 1.95e7 | 1.93e7 | inactive
CoRest | 1 | 3.13e7 | 3.75e7 | 1.50e7 | 1.71e7 | inactive
CoRest | 2 | 3.81e7 | 3.92e7 | 2.09e7 | 1.90e7 | inactive
CoRest | 3 | 2.91e7 | 2.98e7 | 1.40e7 | 1.74e7 | inactive
CG8858 | 1 | 2.46e7 | 3.16e7 | 1.29e7 | 1.31e7 | inactive
CG14511 | 1 | 2.53e7 | 2.96e7 | 1.45e7 | 1.37e7 | inactive
SNRPG (Small nuclear ribonucleoprotein G) | 1 | 1.93e7 | 2.50e7 | 1.21e7 | 1.30e7 | inactive
